From paper PMC6967409 (Frontiers in Chemistry, 2020)

Key:
[1] = system: Chinese hamster ovarian (CHO) cells; conditions: selectivity index; ref Coertzen et al. (2018); cited from earlier work
P. falciparum K1 [2] = system: P. falciparum K1; design: method as in Coertzen et al. (2018); conditions: resistance index; ref Coertzen et al. (2018); cited from earlier work
[3] = system: P. falciparum ARC08-22 (4G); test: T0 [3H]-hypoxanthine drug susceptibility assay, artemisinin-resistant clone (C580Y); type: cell-based, Plasmodium falciparum
[4] = system: P. falciparum NF54 late stage gametocytes (>90% stage IV and V); design: method as in Coertzen et al. (2018); conditions: ref Coertzen et al. (2018); cited from earlier work
[5] = system: P. falciparum PL08-009 (5C); test: T0 [3H]-hypoxanthine drug susceptibility assay, artemisinin-resistant clone (C580Y); type: cell-based, Plasmodium falciparum; conditions: for fold decrease in susceptibility of PL08-009 (5C): relative to W2
P. falciparum W2 [6] = system: P. falciparum W2; design: method as in Coertzen et al. (2018); conditions: resistance index; ref Coertzen et al. (2018); cited from earlier work
HepG2 cells [7] = test: HepG2 cytotoxicity bioluminescence assay (CellTiterGlo, ATP); type: cell-based, human; conditions: selectivity index
Procedure: Briefly, HepG2-CD81 cells were seeded into 1,536 well plates containing 50 nL of test and control compounds diluted into DMSO. […] Next, 2 μL of luciferin reagent (Promega BrightGlo) was added to each well and luciferase activity was detected using a Perkin Elmer Envision plate reader. […] In parallel, plates were processed without sporozoites for HepG2 toxicity measurements.
In continuation of the transmission blocking theme, it is important to establish activities against liver stage parasites. […] This assay uses ultra-high-throughput screening methods optimized for a 1536-well format and a HepG2 human hepatoma cell line. […] To establish selectivity of the compounds for the parasite in the liver stage of infection, cytotoxicity was determined by measuring bioluminescence from the reaction between free ATP of compound-treated, uninfected hepatocytes and a luciferase reporter system.

P. falciparum Dd2 [8] = system: P. falciparum Dd2; design: method as in Coertzen et al. (2018); conditions: resistance index; ref Coertzen et al. (2018); cited from earlier work
HepG2 cells [9] = test: Cytotoxicity, Cytoselect LDH cytotoxicity assay kit; type: cell-based, human; conditions: selectivity index
Procedure: (§1) Cytotoxicity (EC50) was determined against Chinese hamster ovarian (CHO) using a 3-(4,5-dimethylthiazol-2-yl)-2,5-diphenyltetrazolium bromide (MTT) assay and hepatocellular carcinoma cells (HepG2) using the Cytoselect LDH cytotoxicity assay kit (Cell Biolabs).

[10] = system: Chinese hamster ovarian (CHO) cells; test: Cytotoxicity, MTT assay; type: cell-based; conditions: selectivity index
Procedure: as §1

P. falciparum K1 [11] = test: Proliferative (SYBR Green I) assay, asexual parasites, 96 h; type: cell-based, Plasmodium falciparum; conditions: resistance index
Procedure: (§2) P. falciparum parasites (NF54, K1, and W2) were cultured in vitro in human erythrocytes (A^+ or O^+) under 90% N2, 5% CO2, and 5% O2 atmospheric conditions with supplemented RPMI 1640 media (Sigma Aldrich) containing Albumax II, as previously described (Verlinden et al., [2011]). This study was carried out according the guidelines set out by the Faculty of Health Sciences Ethical Committee, Ethical Clearance no. EC-120821/077. The protocol was approved by the Faculty of Health sciences ethical committee at the University of Pretoria. All subjects gave written informed consent in accordance with the Declaration of Helsinki. Parasite proliferation was monitored microscopically using Giemsa stained smears. Synchronized ring stage parasites (>95%) were obtained using a 5% D-sorbitol (Sigma Aldrich) treatment. […] Gametocyte cultures were kept stationary under 90% N2, 5% CO2, and 5% O2 atmospheric conditions at 37°C and treated with 50 mM N-acetyl-glucosamine (NAG) to eliminate residual invasion of asexual parasites.
(§3) Working solutions of the derivatives were prepared from a 10 mM stock solution in 100% DMSO in supplemented RPMI 1640 media containing Albumax II with a final DMSO concentration of <0.1%, previously determined as being non-toxic to intraerythrocytic asexual parasites and gametocytes. Dose responses were assayed using a two-fold serial drug dilution on in vitro >95% ring stage intraerythrocytic P. falciparum parasites at 37°C under 90% N2, 5% CO2, and 5% O2 atmospheric conditions, detecting both parasite lactate dehydrogenase (pLDH) activity as a metabolic marker following a 48 h drug exposure (1.5–2% parasitemia and 2% hematocrit; Makler et al., [1993]) and SYBR Green I fluorescence as proliferative marker following a 96 h drug exposure (1% parasitemia and 1% hematocrit). […] Data analysis was performed using GraphPad Prism 7.

P. falciparum W2 [12] = test: as above; type: cell-based, Plasmodium falciparum; conditions: resistance index
Procedure: as §2, §3

[13] = system: P. falciparum NF54 late stage gametocytes (>90% stage IV and V); test: Gametocytocidal luciferase reporter assay, late stage, 72 h; type: cell-based, Plasmodium falciparum
Procedure: as §2
Gametocytocidal activity was determined using the luciferase reporter line (Reader et al., [2015]) to derive dose responses with two-fold serial drug dilutions for 48 h against early stage gametocytes (day 5 post-induction population, >90% stage I–III) and 10-fold serial drug dilutions for 72 h against late stage gametocytes (day 10 post-induction population, >90% late stage IV–V) (2% gametocytemia, 2% hematocrit), at 37°C under 90% N2, 5% CO2, and 5% O2 atmospheric conditions.

P. falciparum Dd2 [14] = test: Metabolic (parasite LDH) assay, asexual ring stage parasites, 48 h; type: cell-based, Plasmodium falciparum; conditions: resistance index
Procedure: as §3

Structure (SMILES)	SI (EC50 CHO/IC50 NF54 proliferative assay) [1]	RI (IC50 K1/IC50 NF54), proliferative (P. falciparum K1 [2])	RI (IC50 for ARC08-22(4G)/IC50 for W2) [3]	Fold change preference ratio: EG to LG [4]	Fold change preference ratio: LG to EG [4]	RI (IC50 for PL08-09 (5C)/IC50 for W2) [5]	RI (column beside W2; footnote f IC50 Dd2/IC50 NF54), proliferative (P. falciparum W2 [6])	SI (EC50 HepG2/IC50 P. berghei sporozoites) (HepG2 cells [7])	RI (IC50 Dd2/IC50 NF54), metabolic (P. falciparum Dd2 [8])	SI (EC50 HepG2/IC50 NF54) (HepG2 cells [9])	SI (EC50 CHO/IC50 NF54 proliferative assay) [10]	RI (IC50 K1/IC50 NF54), proliferative (P. falciparum K1 [11])	RI (column beside W2; footnote f IC50 Dd2/IC50 NF54), proliferative (P. falciparum W2 [12])	fold decrease in susceptibility of PL08-009 (5C) [5] [fold]	Fold change preference ratio: EG to LG [13]	RI (IC50 Dd2/IC50 NF54), metabolic (P. falciparum Dd2 [14])
C[C@H]1[C@H](N2CCS(=O)(=O)CC2)O[C@@H]2O[C@@]3(C)CC[C@H]4[C@H](C)CC[C@@H]1[C@@]24OO3 [Artemisone 8, artemisone]	>83,000	0.85	1.0	21.9	0.05	0.2	1.36	>1767	0.9							
C[C@H]1[C@H](N2CCN(C(=O)c3ccc(C(F)(F)F)cc3)CC2)O[C@@H]2O[C@@]3(C)CC[C@H]4[C@H](C)CC[C@@H]1[C@@]24OO3 [Compound 27]			1.9			45.2		41.8		39.85	44,235	1.0	0.9	> 20	0.06	26.9
C[C@H]1[C@H](N2CCN(C(=O)c3ccc(F)cc3)CC2)O[C@@H]2O[C@@]3(C)CC[C@H]4[C@H](C)CC[C@@H]1[C@@]24OO3 [Compound 28]			1.6			42.2		73.0		67.8	67,821	0.75	1.0	> 20	0.03	1.4

Read-outs that look alike come from different tables or passages of the source.
